Data: patent publication US20170137467A1
These are yes or no findings as the source states them, for the method shown. For part of these data: In cells and extracts the contact can be indirect. Some results given as binding are weak or reduced against the parent protein; the word gives no strength. For part of these data: Tags and fused reporters may be left off the sequences shown.

Columns and labels:
[1] = target: T1, GFP with C-terminal BC2T-10 tag (GFPBC2T-10) (human); assay: immunoprecipitation from E. coli lysate, Western blot with anti-GFP, FIG. 12
T1 sequence: PDRKAAVSHW

[2] = target: T2, GFP with C-terminal BC2T-8 tag (GFPBC2T-8) (human); assay: as above
T2 sequence: RKAAVSHW

[3] = target: T1, GFP with C-terminal BC2T-10 tag (GFPBC2T-10) (human); assay: pulldown from E. coli lysate, immunoblot with anti-GFP
[4] = target: T2, GFP with C-terminal BC2T-8 tag (GFPBC2T-8) (human); assay: as above
neg CTR = target: T3, neg CTR; assay: pepscan: Myc-peptide on OVA-microspheres as negative control, biotinylated BC2-Nb, streptavidin-PE
T3 sequence (peptide): EQKLISEEDL

[5] = target: T4, BC2T A6V peptide (BC2TA6X library) (human); assay: positional scanning library pulldown with immobilized Nb, LC-MS of the supernatant
T4 sequence (peptide, N-terminal acetyl, C-terminal amide): PDRKAVVSHWQQ

[6] = target: T5, BC2T A6T peptide (BC2TA6X library) (human); assay: as above
T5 sequence (peptide, N-terminal acetyl, C-terminal amide): PDRKATVSHWQQ

[7] = target: T6, BC2T A6S peptide (BC2TA6X library) (human); assay: as above
T6 sequence (peptide, N-terminal acetyl, C-terminal amide): PDRKASVSHWQQ

[8] = target: T7, BC2T S8V peptide (BC2TS8X library) (human); assay: as above
T7 sequence (peptide, N-terminal acetyl, C-terminal amide): PDRKAAVVHWQQ

[9] = target: T8, BC2T R3V peptide (BC2TR3X library) (human); assay: as above
T8 sequence (peptide, N-terminal acetyl, C-terminal amide): PDVKAAVSHWQQ

[10] = target: T9, BC2T R3H peptide (BC2TR3X library) (human); assay: as above
T9 sequence (peptide, N-terminal acetyl, C-terminal amide): PDHKAAVSHWQQ

[11] = target: T10, BC2T S8T peptide (BC2TS8X library) (human); assay: as above
T10 sequence (peptide, N-terminal acetyl, C-terminal amide): PDRKAAVTHWQQ

[12] = target: T11, BC2T R3K peptide (BC2TR3X library) (human); assay: as above
T11 sequence (peptide, N-terminal acetyl, C-terminal amide): PDKKAAVSHWQQ

[13] = target: T12, BC2T R3T peptide (BC2TR3X library) (human); assay: as above
T12 sequence (peptide, N-terminal acetyl, C-terminal amide): PDTKAAVSHWQQ

[14] = target: T13, BC2T S8A peptide (BC2TS8X library) (human); assay: as above
T13 sequence (peptide, N-terminal acetyl, C-terminal amide): PDRKAAVAHWQQ

B1: BC2 nanobody (VHH, not shown: small tags and cut ends)
VHH: QVQLVESGGGLVQPGGSLTLSCTASGFTLDHYDIGWFRQAPGKEREGVSCINNSDDDTYYADSVKGRFTIFMDNAKDTVYLQMNSLKPEDTAIYYCAEARGCKRGRYEYDFWGQGTQVTVSS
[1]
  binding: binds
[2]
  binding: binds
[3]
  binding: binds
[4]
  binding: binds
Neg CTR
  binding: no binding (tested: 1 µg/ml BC2-Nb)
[5]
  binding: binds
[6]
  binding: binds
[7]
  binding: binds
[8]
  binding: binds
[9]
  binding: binds
[10]
  binding: binds
[11]
  binding: binds
[12]
  binding: binds
[13]
  binding: binds
[14]
  binding: binds
